Measurements reported in PubChem BioAssay AID743454 (Peter MacCallum Cancer Centre, 2014).

Aim: 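Search for knock-downs that restore vorinostat killing in resistant colon cancer cells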 (primary screen)
System: human HCT116-VR colon cancer cells, selected for vorinostat resistance
Reagent: siRNA pool against human genes, 40 nM siRNA pool
Time to read-out: vorinostat for 24 h, read-out about 72 h after transfection
Conditions: vorinostat at 2.5 µM final
Detection: 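Cell viability by CellTiter-Fluor and caspase 3/7 activity by luminescence, each scaled to mock wells per plate, duplicates averaged, then robust z-scored over all plates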
Reading the numbers: viability robust z-score: higher = more viable cells than screen typical; caspase robust z-score: higher = more caspase 3/7 activity than screen typical
Call rule: 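a knock-down is a hit when classed RV1 or RV2 for lowered viability, or CA1 or CA2 for caspase activation; those lethal without drug were dropped; hits were retested singly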
Shown is one part, drawn at random, of about 18,000 deposited reagents. 450 of them (2.5%) were called active. 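Single biological run; no consistent viability z cut-off exists, so the class columns, not z-scores, define the calls.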 Unmarked entries are inactive. No sequences are given here.

gene | viability hit class | caspase hit class | viability robust z-score | caspase robust z-score
DOK5 | no change | no change | 0.23 | 2.87
KCNK4 | no change | no change | -2.24 | 2.88
TNFSF10 | no change | no change | 1.05 | 1.47
OR56B4 | no change | no change | -2.82 | 1.55
NTN5 | no change | no change | -0.64 | 2.34
CRYBA4 | no change | no change | 0.19 | 1.82
DMRT1 | no change | no change | -1.09 | 0.15
NONO | no change | no change | -0.62 | 0.64
RNF181 | no change (active) | CA2 (caspase activation) | -1.19 | 6.04
RPH3A | no change | no change | -1.17 | 1.41
GIMAP5 | no change | no change | -0.91 | -0.04
MPHOSPH10 | no change | no change | -1.19 | -0.92
MED16 | no change | no change | -0.88 | -0.11
EMC3 | no change | no change | -0.32 | 0.22
RERE | no change (active) | CA2 (caspase activation) | -0.16 | 7.68
IPO4 | no change | no change | 1.12 | 1.17
TENT4B | no change | no change | 0.76 | -0.03
TRIM64 | no change | no change | -0.26 | 3.29
ATP5MC2 | no change | no change | -0.01 | 0.95
ABCB10 | no change | no change | -0.24 | -0.95

Active calls (from the list above):
gene | viability hit class | caspase hit class | viability robust z-score | caspase robust z-score
RNF181 | no change (active) | CA2 (caspase activation) | -1.19 | 6.04
RERE | no change (active) | CA2 (caspase activation) | -0.16 | 7.68

Continued:
gene | viability hit class | caspase hit class | viability robust z-score | caspase robust z-score
TEX13B | no change | no change | 0.34 | 2.3
GLMN | no change | no change | -0.09 | -0.74
UEVLD | RV2 (reduced viability) (active) | no change | -2.97 | 4.63
KCNJ13 | no change | no change | 0.52 | 0.31
FBXO3 | no change | no change | 0.22 | 0.3
TBC1D3C | no change | no change | 0.74 | 0.16
PSEN2 | no change | no change | 0.58 | 0.19
COQ4 | no change | no change | 1.68 | 0.68
TBC1D17 | no change | no change | -0.62 | -0.05
TRMT1 | no change | no change | -1.73 | 4.19
ZCCHC24 | no change | no change | 1.73 | -0.27
SNX22 | no change | no change | 0.9 | -0.74
TMEM178A | no change | no change | -0.34 | 2.73
KLF17 | no change | no change | -0.42 | 0.38
G3BP1 | no change | no change | 1.92 | -0.32
INKA1 | no change | no change | -0.34 | 0.07
CEPT1 | no change | no change | 0.28 | 1.98
H2AC13 | no change | no change | -1.1 | -0.62
MMP1 | no change | no change | 0.16 | -0.28
